Measured values taken from PubChem BioAssay AID2073 (Sanford-Burnham Center for Chemical Genomics, 2009).
Screen size: about 290,000 compounds; about 570 (0.2%) were called active. The inconclusive results got no clear call from the source; some entries with a clear call stand among them for comparison. Rule as the data show it: active = inhibition mostly above about 51% (no sharp cut-off); inconclusive = no clear call, values can overlap the other calls; inactive = mostly below about 53%.

Chains of the proteins cited; added tags and fusions are not shown.
UniProt Q00975, whole entry, looked up: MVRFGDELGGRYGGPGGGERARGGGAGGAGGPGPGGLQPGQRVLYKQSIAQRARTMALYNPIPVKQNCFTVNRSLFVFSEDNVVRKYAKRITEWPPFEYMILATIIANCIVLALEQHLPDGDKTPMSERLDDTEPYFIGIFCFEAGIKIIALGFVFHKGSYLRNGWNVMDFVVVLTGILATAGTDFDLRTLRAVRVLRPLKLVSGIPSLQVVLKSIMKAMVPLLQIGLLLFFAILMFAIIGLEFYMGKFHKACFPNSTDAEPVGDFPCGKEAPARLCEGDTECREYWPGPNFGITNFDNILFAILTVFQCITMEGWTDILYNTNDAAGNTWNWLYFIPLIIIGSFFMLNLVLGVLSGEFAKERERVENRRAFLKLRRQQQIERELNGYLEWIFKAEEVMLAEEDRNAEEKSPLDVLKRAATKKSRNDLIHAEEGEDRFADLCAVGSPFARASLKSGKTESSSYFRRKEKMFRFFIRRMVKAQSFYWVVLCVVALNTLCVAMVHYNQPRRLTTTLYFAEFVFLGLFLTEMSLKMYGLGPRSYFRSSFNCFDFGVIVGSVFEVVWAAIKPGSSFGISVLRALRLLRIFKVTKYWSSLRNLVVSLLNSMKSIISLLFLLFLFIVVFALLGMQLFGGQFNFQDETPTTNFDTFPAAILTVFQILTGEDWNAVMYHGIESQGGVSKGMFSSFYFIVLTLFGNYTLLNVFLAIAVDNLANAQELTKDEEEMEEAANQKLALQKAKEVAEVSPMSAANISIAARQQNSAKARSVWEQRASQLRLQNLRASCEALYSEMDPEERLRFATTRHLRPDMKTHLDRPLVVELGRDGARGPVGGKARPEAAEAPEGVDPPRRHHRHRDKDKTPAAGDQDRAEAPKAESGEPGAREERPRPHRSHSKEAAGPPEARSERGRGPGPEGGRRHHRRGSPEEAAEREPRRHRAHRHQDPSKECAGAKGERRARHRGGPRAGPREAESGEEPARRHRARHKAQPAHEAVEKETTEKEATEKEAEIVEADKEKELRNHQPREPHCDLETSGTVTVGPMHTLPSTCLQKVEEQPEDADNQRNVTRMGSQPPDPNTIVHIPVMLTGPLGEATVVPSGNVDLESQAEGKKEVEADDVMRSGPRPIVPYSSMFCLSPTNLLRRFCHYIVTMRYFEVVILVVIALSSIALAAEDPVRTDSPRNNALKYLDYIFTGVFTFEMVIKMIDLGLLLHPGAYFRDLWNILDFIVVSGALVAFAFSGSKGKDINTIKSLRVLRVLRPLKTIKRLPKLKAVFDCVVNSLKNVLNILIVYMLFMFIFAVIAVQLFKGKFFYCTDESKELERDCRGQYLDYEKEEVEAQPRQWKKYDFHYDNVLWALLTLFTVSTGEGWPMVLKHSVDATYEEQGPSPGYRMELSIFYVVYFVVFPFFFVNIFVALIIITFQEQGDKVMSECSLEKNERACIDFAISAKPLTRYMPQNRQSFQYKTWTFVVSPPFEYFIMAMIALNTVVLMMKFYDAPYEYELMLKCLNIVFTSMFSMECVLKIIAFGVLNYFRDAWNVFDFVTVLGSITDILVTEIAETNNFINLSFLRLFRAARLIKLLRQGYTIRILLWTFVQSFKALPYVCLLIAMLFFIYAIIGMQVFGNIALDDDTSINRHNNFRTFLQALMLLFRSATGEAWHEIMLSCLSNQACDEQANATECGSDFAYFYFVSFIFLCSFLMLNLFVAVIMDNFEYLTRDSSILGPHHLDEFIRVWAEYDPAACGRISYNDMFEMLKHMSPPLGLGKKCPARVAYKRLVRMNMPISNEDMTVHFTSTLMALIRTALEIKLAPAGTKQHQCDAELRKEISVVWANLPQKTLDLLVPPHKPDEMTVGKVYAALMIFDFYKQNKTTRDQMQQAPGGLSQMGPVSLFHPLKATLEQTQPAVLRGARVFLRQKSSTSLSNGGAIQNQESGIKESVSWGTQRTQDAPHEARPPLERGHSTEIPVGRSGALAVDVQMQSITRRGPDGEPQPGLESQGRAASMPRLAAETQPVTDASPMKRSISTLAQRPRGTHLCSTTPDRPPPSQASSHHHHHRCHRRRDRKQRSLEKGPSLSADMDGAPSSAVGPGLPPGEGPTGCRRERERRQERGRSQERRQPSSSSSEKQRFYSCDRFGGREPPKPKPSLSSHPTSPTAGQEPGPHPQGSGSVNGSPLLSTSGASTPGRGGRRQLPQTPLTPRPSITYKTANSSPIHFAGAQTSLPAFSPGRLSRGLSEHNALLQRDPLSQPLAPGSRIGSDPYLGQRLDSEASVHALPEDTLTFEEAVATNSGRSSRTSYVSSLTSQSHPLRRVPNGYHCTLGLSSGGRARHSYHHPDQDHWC

These compounds were tested against Voltage-dependent N-type calcium channel subunit alpha-1B (Homo sapiens) (UniProt Q00975) (assay: disruptors of CaV2.2 binding to Mint1 – biochemical, HTRF (AID 2073)). Details: HTRF protein-protein interaction, Mint1-CaV2.2; at 20 µM; hits give high values.
With Cc1ccc(-n2nnnc2SCC#N)cc1 the inhibition was inconclusive: 75.3%. In the case of Cc1ccc(S(=O)(=O)NC(C(=O)Oc2ccc3c(C(F)(F)F)cc(=O)oc3c2)c2ccccc2)cc1 (stereo not given), the inhibition is reported as inconclusive: 63%. With CCOC(=O)c1[nH]c2ccccc2c1CCCN1C(=O)c2ccccc2C1=O the inhibition was inactive: -6.7%. O=C(Nc1ccc2nn(-c3ccccc3)nc2c1)c1cccnc1 was tested, and the inhibition was inconclusive: 57.2%. In the case of COC(=O)c1ccc(C(=O)OC)c(NC(=O)CN(c2ccc3c(c2)OCO3)S(C)(=O)=O)c1, the inhibition is reported as inconclusive: 68.4%. For COc1cccc(-c2nc(NCc3ccco3)c3ccccc3n2)c1O, the inhibition was inconclusive: 67.4%. In the case of Cc1ccccc1NC(=O)Cc1nc(COC(=O)c2cccc(C)c2O)cs1, the inhibition is reported as inconclusive: 50.8%. With CCCCOc1cccc(C2C(C(=O)c3cccs3)=C(O)C(=O)N2Cc2cccnc2)c1 (stereo not given) the inhibition was inconclusive: 69.1%. For Cc1ccc(-c2nc(CS(=O)(=O)CC(=O)NCCN3CCCC3)c(C)o2)cc1, the inhibition was inconclusive: 90.2%. In the case of Cc1nsc(Nc2ccccc2)c1C#N, the inhibition is reported as inactive: 36.6%. For Cc1ccc(S(=O)(=O)N2CCN(CCNC(=O)C(=O)NCc3ccccc3)CC2)cc1, the inhibition was inactive: -2.1%. For Cc1c(Cl)cccc1NC(=S)N(C)CCC#N, the inhibition was inconclusive: 67.9%. With Cc1ccc(NC(=O)c2ccc3snnc3c2)cc1 the inhibition was inconclusive: 72.3%. With COCCCNC(=O)C1CCN(C(=O)c2oc3cc4sc(N(C)C)nc4cc3c2C)CC1 the inhibition was inconclusive: 57.1%. With Cc1ccc(C(=O)COC(=O)CNC(=O)c2ccc(N3C(=O)c4ccccc4C3=O)cc2)cc1C the inhibition was inconclusive: 84.7%. C[C@@H](Oc1ccccc1)c1nnn(Cc2ccccc2)c1-c1c([C@@H](C)Oc2ccccc2)nnn1Cc1ccccc1 was tested, and the inhibition was inconclusive: 83.4%. For N/C(Cc1ccc(Cl)cc1Cl)=N\OC(=O)c1ccc(Br)o1, the inhibition was inactive: 7.7%. For CC(C)C[C@@H]1NC(=O)N(CCN2CCOCC2)C1=O, the inhibition was inconclusive: 56%. O=C(Nc1ccc2nc(-c3ccco3)c(-c3ccco3)nc2c1)NC1CC1 was tested, and the inhibition was inconclusive: 76.3%. Clc1ccc(-c2cnc3n2CCCCC3)cc1 was tested, and the inhibition was inconclusive: 55.1%. For O=C(COc1ccc(Cl)cc1Cl)c1ccc[nH]1, the inhibition was inactive: 21.1%. In the case of C=C1CCC[C@]2(C)C[C@H]3OC(=O)C(CN(Cc4ccc(OC)c(OC)c4)CC(C)O)[C@H]3CC12 (stereo not given in full), the inhibition is reported as inactive: 6.9%. For Cc1ccc(N=C2NC(=O)S/C2=C\c2ccco2)cc1, the inhibition was inactive: 29.6%. For COc1ccc(S(=O)(=O)N2c3cc(C)ccc3OCC2C(C)(C)C)cc1 (stereo not given), the inhibition was inactive: -0.4%. CCOC(=O)c1c(C)c(C(=O)NCc2cccs2)c(C)n1C was tested, and the inhibition was inconclusive: 62.8%. With Cc1cccnc1NC(=O)Nc1ccccc1 the inhibition was inconclusive: 62.3%. In the case of COC(=O)c1ccc(COc2ccccc2/C=N/NC(=O)c2cccnc2)cc1, the inhibition is reported as inconclusive: 59%. With N#C/C(=C\c1cccnc1)C(=O)Nc1ccc(SC(F)F)cc1 the inhibition was inconclusive: 88.9%. In the case of COc1ccc(S(=O)(=O)N2c3ccccc3OCC2C(C)(C)C)cc1 (stereo not given), the inhibition is reported as active: 50.4%. In the case of Cc1ccc(Oc2coc3cc(O)ccc3c2=O)cc1, the inhibition is reported as inconclusive: 54.8%. For O=C(CCCc1ccccc1)c1ccccc1, the inhibition was inconclusive: 76.6%. In the case of CCOC(=O)c1c(C)nc(C)c(C(=O)OCC)c1-c1ccc(OC)cc1, the inhibition is reported as inconclusive: 65.3%. O=C1NC(=O)/C(=C/c2cccc3ccccc23)S1 was tested, and the inhibition was inconclusive: 76.1%. With O=C(Nc1ncc2c(n1)CC(c1ccco1)CC2=O)c1ccccc1 (stereo not given) the inhibition was inactive: 33.5%. With CCOc1ccc(-c2nnc(N)s2)cc1 the inhibition was inconclusive: 53.2%. Cn1cc([N+](=O)[O-])c(C(=O)Nc2nccs2)n1 was tested, and the inhibition was inconclusive: 56.3%. In the case of Cc1ccc(C(=O)NCCc2nc3ccccc3[nH]2)cc1[N+](=O)[O-], the inhibition is reported as inconclusive: 65.5%. With O=C1CCCN1CCCNCC(O)c1ccccc1 (stereo not given) the inhibition was inconclusive: 69.8%. In the case of Cc1[nH]c2ccccc2c1C(=O)NS(=O)(=O)Nc1ccc(Cl)cc1, the inhibition is reported as inconclusive: 63.6%. COc1ccc2[nH]c3nc(SC(C)C)nnc3c2c1 was tested, and the inhibition was inconclusive: 73.5%. CCOC(=O)c1cc(-c2cc3ccccc3o2)nc2c1c(=O)[nH]c(=O)n2CCOC was tested, and the inhibition was inconclusive: 55.5%. For Cc1ccc2nc(N3CCN(S(=O)(=O)c4ccc5c(c4)OCCO5)CC3)c(C#N)cc2c1, the inhibition was inconclusive: 55.1%. In the case of O=C(Cn1cnnn1)Nc1cccc([N+](=O)[O-])c1, the inhibition is reported as inconclusive: 60.9%. For COC(C[C@@H]1O[C@@H]1C(=O)COCc1ccccc1)OC, the inhibition was inconclusive: 74.3%. In the case of O=C(O)CCc1ccc(-c2ccc(Br)cc2)n1Cc1ccco1, the inhibition is reported as inconclusive: 81.4%. Cn1cc(C(=O)c2ccc(Cl)cc2Cl)cc1C(=O)N/N=C(\N)COc1ccc(Cl)cc1 was tested, and the inhibition was inconclusive: 54.5%. CCCn1c(/C=C/c2cc[n+](C)cc2)nc2ccccc21 was tested, and the inhibition was inconclusive: 61.4%. For O=C(Nc1cccc(NC(=O)c2sc3ccccc3c2Cl)c1)c1ccco1, the inhibition was inactive: 12.7%. With Oc1ccccc1Cn1nnc2ccccc21 the inhibition was inactive: 7.1%. For CCN1CCN(C(=O)c2ccc(N3CC4CC(C3)c3cccc(=O)n3C4)c(NC(=O)c3cc(OC)cc(OC)c3)c2)CC1 (stereo not given), the inhibition was inconclusive: 88.9%. With Cc1ccccc1NC(=O)/C=C1\SC(=O)NC1=O the inhibition was inconclusive: 56.6%. For C[C@@H]1CC=C[C@H]2[C@H]1C(=O)N(Cc1ccccc1)[C@H]2c1ccc(F)c(-c2ccc(N(C)C)cc2)c1, the inhibition was inconclusive: 50.6%. Cc1cnc(NC(=O)COc2ccccc2Cl)s1 was tested, and the inhibition was inconclusive: 74.2%. For CCNS(=O)(=O)c1ccc(OC)c(C(=O)NC2CCCCC2)c1, the inhibition was inconclusive: 54.6%. With COc1cc(OC)cc(C(=O)NCCC(c2ccccc2)c2ccccc2)c1 the inhibition was inconclusive: 83.5%. Cc1sc(NC(=O)c2ccccc2)c(C(c2ccccn2)N2CCN(CCO)CC2)c1C (stereo not given) was tested, and the inhibition was inconclusive: 78.8%. In the case of O=C(Nc1ccccc1C(=O)O)c1ccc2c(c1)C(=O)N(c1cccc([N+](=O)[O-])c1)C2=O, the inhibition is reported as inactive: 11.2%. Cc1oc(-c2cccc(Cl)c2)nc1CN1CCCC(C(=O)NCc2ccco2)C1 (stereo not given) was tested, and the inhibition was inconclusive: 74.9%. CC(=O)c1ccc(NC(=O)c2cc3nc4c(c(C(F)(F)F)n3n2)CCCC4)cc1 was tested, and the inhibition was inactive: 33.2%. For CC(C)N(C(=O)Nc1ccc2nsnc2c1)C(C)C, the inhibition was active: 60.7%. For Cc1ccc(-c2cc(C(=O)NCCN3CCOCC3)c3ccccc3n2)o1, the inhibition was inconclusive: 57%. O=C(CC(Sc1n[nH]c(-c2ccccc2)n1)c1ccccc1)NCc1ccccc1 (stereo not given) was tested, and the inhibition was inconclusive: 86.2%. With CSc1cccc(NC(=O)C2CCN(C(=O)c3ccccc3C)CC2)c1 the inhibition was inactive: 3.1%. For O=S(=O)(c1cccc(-c2nnc(SCc3ccc(Cl)cc3)o2)c1)N1CCCCC1, the inhibition was inconclusive: 79.9%. For CCOC(=O)C1=C(Cc2ccc(OC)cc2)C(=O)c2ccccc2C1=O, the inhibition was active: 61.9%. With Cc1c(CCO)c(=O)n2c([nH]c3ccccc32)c1C#N the inhibition was inactive: -2.7%. Cc1nc2cc(F)ccc2n1C1CCN(S(=O)(=O)c2ccccc2)CC1 was tested, and the inhibition was inactive: 5.6%. With COc1ccc(-c2[nH]ncc2/C=N/NC(=O)c2cc(Br)ccc2O)c(OC)c1 the inhibition was inconclusive: 51.9%. With CCOC(=O)c1oc2cccc(OCC(O)CNC(C)C)c2c1C (stereo not given) the inhibition was inconclusive: 58.6%. With O=C(O)CSc1nnc(Cn2nnc3ccccc32)n1CCc1ccccc1 the inhibition was inconclusive: 52%. For Cc1ccc(C2NC(=S)NC3=C2C(=O)CCC3)cc1 (stereo not given), the inhibition was inconclusive: 72.2%. With CCOc1ccc(OCC)c(NC(=O)CCSCCc2ccccn2)c1 the inhibition was inconclusive: 57.6%. With O=C(Nc1ccc(S(=O)(=O)N2CCCCCC2)cc1)c1ccco1 the inhibition was inconclusive: 51.6%. In the case of COc1ccccc1/C=c1\sc2nc(-c3ccco3)nn2c1=O, the inhibition is reported as inactive: 35.1%. In the case of CCOC(=O)c1ccc(N2C(=O)c3n[nH]c(C)c3C2c2ccco2)cc1 (stereo not given), the inhibition is reported as inactive: -2.1%. CCN(CC)P(=O)(C(NC(=O)OC)C(F)(F)C(F)(F)C(F)(F)C(F)F)N(CC)CC (stereo not given) was tested, and the inhibition was inconclusive: 76.2%. Cc1cccc(N2CCN(c3ccc4cc(S(=O)(=O)N5CCCCC5)ccc4n3)CC2)c1C was tested, and the inhibition was inconclusive: 56.7%. Cc1cccn2c(=O)c3cc(C(=O)NC4CCCCC4)c(=N)n(CCN4CCOCC4)c3nc12 was tested, and the inhibition was inconclusive: 75.5%. O=C(Nc1cnn(C23CC4CC(CC(C4)C2)C3)c1)c1cnn2cccnc12 was tested, and the inhibition was inconclusive: 51.7%. With COc1cccc(N=c2oc3ccccc3cc2-c2nc3ccccc3[nH]2)c1 the inhibition was inactive: 17.1%. With O=C(NCCN1CCN(c2ccccc2)CC1)Nc1ccccc1Br the inhibition was inconclusive: 60.7%. For COc1ccc(-n2nnnc2SCC(=O)Nc2ccccc2N2CCOCC2)cc1OC, the inhibition was inconclusive: 84.2%. With COc1ccc2c(Cl)c(C(=O)NN)sc2c1 the inhibition was inactive: 8.1%. COc1ccccc1NS(=O)(=O)c1cccc2nsnc12 was tested, and the inhibition was inconclusive: 79.9%. With CCCC(=O)Nc1ccc2c(c1)nc(CN1CCN(C(=O)OCC)CC1)n2CC the inhibition was inconclusive: 61.2%. For CSc1cccc(NC(=O)c2cc(S(=O)(=O)N3CCCC3)cn2C)c1, the inhibition was inactive: 8.5%. Oc1ccc(N=C/C=C/c2cccc(Br)c2)cc1-c1nc2ccccc2s1 was tested, and the inhibition was inactive: 66.6%. CC1(C)CC(=O)C=C(NNC(=O)C2CCCCC2)C1 was tested, and the inhibition was inactive: 1.6%. In the case of O=c1oc2c(CN3CCCCC3)c(O)ccc2cc1-c1nc2ccccc2[nH]1, the inhibition is reported as inconclusive: 52.9%. With C/C(=N\NC(=O)c1ccccc1Cl)c1ccccn1 the inhibition was inactive: 16.3%.
